This passage reports binding results from article doi:10.1101/2020.07.05.188557.

No constants are given. Whether binding was seen depends on the method and setting. Binding seen in cells or lysates may run through a third protein. Some entries that bind do so weakly or less than the wild type. Tags and fused reporters may be left off the sequences shown.

In assay [1] the target is T1, Gal2-Cub-GST-6xHA (S. cerevisiae) (UniProt P13181).
T1 sequence: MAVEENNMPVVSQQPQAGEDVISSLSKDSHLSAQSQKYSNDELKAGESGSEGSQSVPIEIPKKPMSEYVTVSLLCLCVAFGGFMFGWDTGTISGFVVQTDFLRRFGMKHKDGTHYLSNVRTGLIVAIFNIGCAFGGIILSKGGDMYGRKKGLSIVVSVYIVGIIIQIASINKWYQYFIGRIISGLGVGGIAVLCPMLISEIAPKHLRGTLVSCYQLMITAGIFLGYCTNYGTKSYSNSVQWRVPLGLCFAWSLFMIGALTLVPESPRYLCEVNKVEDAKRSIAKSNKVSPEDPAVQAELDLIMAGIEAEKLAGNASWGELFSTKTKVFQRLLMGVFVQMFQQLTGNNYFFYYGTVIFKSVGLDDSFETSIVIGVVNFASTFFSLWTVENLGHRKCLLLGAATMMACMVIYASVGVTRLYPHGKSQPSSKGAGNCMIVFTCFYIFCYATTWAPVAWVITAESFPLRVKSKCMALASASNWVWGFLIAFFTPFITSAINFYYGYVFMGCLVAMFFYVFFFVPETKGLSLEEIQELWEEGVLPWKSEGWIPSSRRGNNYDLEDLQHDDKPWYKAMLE
The experiment in a line: split reporter.

The target of assay [2] is T2, Hxt1-Cub-GST-6xHA (S. cerevisiae) (UniProt P32465).
T2 sequence: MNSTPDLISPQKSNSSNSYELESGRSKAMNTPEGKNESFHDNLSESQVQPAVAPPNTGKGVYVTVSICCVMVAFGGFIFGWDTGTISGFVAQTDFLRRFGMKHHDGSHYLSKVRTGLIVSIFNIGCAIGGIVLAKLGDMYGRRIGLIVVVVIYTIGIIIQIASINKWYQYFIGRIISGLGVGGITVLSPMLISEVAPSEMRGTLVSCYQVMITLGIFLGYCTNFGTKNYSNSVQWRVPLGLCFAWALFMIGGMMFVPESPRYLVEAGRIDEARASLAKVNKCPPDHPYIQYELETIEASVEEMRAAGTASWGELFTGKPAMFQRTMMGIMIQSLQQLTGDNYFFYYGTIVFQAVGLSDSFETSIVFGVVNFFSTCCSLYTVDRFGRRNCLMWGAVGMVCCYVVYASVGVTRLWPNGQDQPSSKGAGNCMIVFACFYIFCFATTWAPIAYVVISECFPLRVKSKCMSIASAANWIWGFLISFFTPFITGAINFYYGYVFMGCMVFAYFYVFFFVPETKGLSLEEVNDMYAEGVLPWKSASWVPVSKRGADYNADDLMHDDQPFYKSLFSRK
The experiment in a line: split reporter.

B1: Shr3-NubA (protein, UniProt Q02774 1-210)
chain: MFSYSDFCSIGTAMILSATTFLMGVFFSNMPYDYHLLFNPNSTQEHFDLALRHYQILHETPLPVIVTLCVVAGIGLVGGTIKVFKPNPELQMFEYCSLGLYVLAICVFLTNVKTGIDCSVSHNWGEVTENQGLAVIASSNIILLVMFAGVIILQIGLWYSNWDLQKRLKEFYAQEEREAANAGKKTEKVDNAKKNDNKSKGAQKRKNAKK
As to B1, the binding result in assay [1] and in assay [2] was “binds weakly” in each case.
